For two molecules, binding results are on record in PMC6222118.

Results are given in words; binding and its absence hold for the method and conditions named. Some entries that bind do so weakly or less than the wild type.

Assay [1] addresses T1, peroxiredoxin 2 (Prx 2, cytosolic isoform) (mouse (endogenous in C2C12)), Q61171.
T1 chain: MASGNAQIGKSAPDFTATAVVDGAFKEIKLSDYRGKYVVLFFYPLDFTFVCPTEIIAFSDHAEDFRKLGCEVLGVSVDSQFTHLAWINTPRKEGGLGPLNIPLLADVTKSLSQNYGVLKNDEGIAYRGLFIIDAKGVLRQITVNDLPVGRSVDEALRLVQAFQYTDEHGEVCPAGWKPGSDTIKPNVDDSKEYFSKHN
The assay is described as follows: non-reducing SDS-PAGE with Western blot (disulfide-linked dimers); C2C12 myotubes treated with H2O2 boluses (7.5-750 uM, 10 or 30 min) or MitoPQ (5 uM, 0.5-24 h); thiols blocked with 80 mM methyl methanethiosulfonate; RIPA lysis; DTT excluded from sample buffer; % dimer = SI dimer/(SI dimer + SI monomer) x 100. The conditions noted are these: remark: other sources report otherwise.

The target of assay [2] is peroxiredoxin 3 (Prx 3, mitochondrial matrix isoform) (mouse (endogenous in C2C12)) (UniProt P20108). The assay is described as above.

B1: peroxiredoxin 2 (Prx 2, cytosolic isoform), Q61171 1-198 (protein)
chain: MASGNAQIGKSAPDFTATAVVDGAFKEIKLSDYRGKYVVLFFYPLDFTFVCPTEIIAFSDHAEDFRKLGCEVLGVSVDSQFTHLAWINTPRKEGGLGPLNIPLLADVTKSLSQNYGVLKNDEGIAYRGLFIIDAKGVLRQITVNDLPVGRSVDEALRLVQAFQYTDEHGEVCPAGWKPGSDTIKPNVDDSKEYFSKHN
Turning to B1, the binding entry in assay [1] is recorded as “binds”.

B2: peroxiredoxin 3 (Prx 3, mitochondrial matrix isoform) (protein, UniProt P20108 63-257)
chain: TPAVTQHAPYFKGTAVVNGEFKELSLDDFKGKYLVLFFYPLDFTFVCPTEIVAFSDKANEFHDVNCEVVAVSVDSHFSHLAWINTPRKNGGLGHMNITLLSDITKQISRDYGVLLESAGIALRGLFIIDPNGVVKHLSVNDLPVGRSVEETLRLVKAFQFVETHGEVCPANWTPESPTIKPSPTASKEYFEKVHQ
Take B2: in assay [2], the binding result is “binds”.
